One molecule from patent EP2078752A2 can be followed below.

Assay [1] concerns the target T1, human ALK-2 (clone HP53) (human), Q04771.
T1 chain: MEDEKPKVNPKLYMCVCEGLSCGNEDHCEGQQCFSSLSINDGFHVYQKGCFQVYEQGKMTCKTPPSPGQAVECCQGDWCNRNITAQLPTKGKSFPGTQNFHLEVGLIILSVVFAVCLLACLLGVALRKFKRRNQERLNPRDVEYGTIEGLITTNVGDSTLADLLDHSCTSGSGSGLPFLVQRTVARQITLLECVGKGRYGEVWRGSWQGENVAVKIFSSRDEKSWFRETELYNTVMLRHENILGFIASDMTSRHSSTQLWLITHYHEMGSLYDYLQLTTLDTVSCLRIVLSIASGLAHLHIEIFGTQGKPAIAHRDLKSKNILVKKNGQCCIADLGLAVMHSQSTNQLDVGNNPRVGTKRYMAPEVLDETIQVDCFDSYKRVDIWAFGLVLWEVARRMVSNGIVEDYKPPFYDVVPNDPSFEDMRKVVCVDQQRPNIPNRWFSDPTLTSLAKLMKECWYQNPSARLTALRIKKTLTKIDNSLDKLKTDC
The assay is described as follows: affinity cross-linking of 125I-activin A then immunoprecipitation, COS-1 cells co-transfected with ActR-II. The settings on record: remark: other sources report otherwise.

In assay [2] the target is T2, endogenous ALK-2 (activin type I receptor) of PAE/Chim A porcine aortic endothelial cells (porcine), E9M2M1.
T2 chain: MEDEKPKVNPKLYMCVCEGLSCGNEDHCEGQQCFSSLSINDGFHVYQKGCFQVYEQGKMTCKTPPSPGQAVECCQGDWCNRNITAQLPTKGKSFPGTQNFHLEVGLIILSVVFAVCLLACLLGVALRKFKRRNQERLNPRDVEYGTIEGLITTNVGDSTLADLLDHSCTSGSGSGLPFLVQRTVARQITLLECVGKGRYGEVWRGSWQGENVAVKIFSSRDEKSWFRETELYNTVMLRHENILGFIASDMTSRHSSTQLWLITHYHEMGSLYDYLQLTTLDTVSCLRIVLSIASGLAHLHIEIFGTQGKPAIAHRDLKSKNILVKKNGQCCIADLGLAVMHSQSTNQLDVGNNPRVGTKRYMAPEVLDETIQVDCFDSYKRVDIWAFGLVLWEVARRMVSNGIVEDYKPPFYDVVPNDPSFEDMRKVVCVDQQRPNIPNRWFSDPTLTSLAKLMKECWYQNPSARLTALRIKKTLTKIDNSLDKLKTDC
The assay is described as follows: affinity cross-linking of 125I-activin A on PAE/Chim A cells then immunoprecipitation. The settings on record: remark: other sources report otherwise.

No constants are given. Whether binding was seen depends on the method and setting. Some entries that bind do so weakly or less than the wild type.

B1: recombinant human activin A, iodinated (^125I-activin A), P08476 311-426 (ligand, UniProt P08476 311-426, looked up)
chain: GLECDGKVNICCKKQFFVSFKDIGWNDWIIAPSGYHANYCEGECPSHIAGTSGSSLSFHSTVINHYRMRGHSPFANLKSCCVPTKLRPMSMLYYDDGQNIIKKDIQNMIVEECGCS
modifications: here or on the partner: 125I-iodinated by the chloramine T method
Take B1: the binding result in assay [1] and in assay [2] was “binds” in each case.
